Data from the ROBIN nucleic acid binder screens, doi:10.1002/anie.202211358.

Targets (5′ to 3′):
TPP: TPP riboswitch RNA three-way junction, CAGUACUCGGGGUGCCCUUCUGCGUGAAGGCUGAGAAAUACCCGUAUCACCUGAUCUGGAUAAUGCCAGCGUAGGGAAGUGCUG. About 24,000 compounds screened, about 160 hits.
SAM-II: SAM-II riboswitch RNA pseudoknot, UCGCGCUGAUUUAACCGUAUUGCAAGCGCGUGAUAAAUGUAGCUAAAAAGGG. About 21,000 compounds screened, about 200 hits.
PreQ1: PreQ1 riboswitch RNA pseudoknot, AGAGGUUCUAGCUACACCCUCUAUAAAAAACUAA. From B. subtilis. About 24,000 compounds screened, about 170 hits.

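Compounds were printed on reactive glass slides in duplicate spots, a dye-labelled oligonucleotide was laid over them, and the fluorescence left after washing was read. For the PreQ1, TPP and SAM-II riboswitches the laboratory earlier reported (doi:10.1038/s41467-019-09493-3) 1 µM RNA, 2 h, and a rule that included a mean Z-score above 3 (spot signal-to-noise against the whole library), a score well above that on a control array, and duplicate spots agreeing (coefficient of variation under 100). The data file gives only the calls; its cut-offs may differ, and compounds hitting several targets are kept. A missing hit is not proof of no binding, and a hit is not a measured affinity.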 A compound is marked hit if it was called a hit and none if it was screened but was not. This is an unselected part of the compounds tested. A target missing from an entry has no call listed here. A dash means that no call is listed here.

structure | TPP | SAM-II | PreQ1
C=C(C)CN1CC(=O)N2CC[C@@H](O)C[C@H]2C1=O | none | none | none
O=C1CC(NCC2CCCCC2)C(=O)N1c1ccccc1 (stereo unspecified) | none | none | none
Cc1cccc(-c2ncc(CNCc3cccc4[nH]ccc34)cn2)c1 | none | none | none
O=C(CCNCC1(c2cccc(F)c2)CCOCC1)Nc1nccs1 | none | none | none
CN(C)c1ccc2c(c1)OC(N)=C(C#N)C2c1c(F)cccc1F (stereo unspecified) | none | none | none
O=C1OC(Nc2ccccc2Cl)c2ccccc21 (stereo unspecified) | none | none | none
Nc1nonc1-n1nncc1CNc1ccc(Cl)cc1 | none | none | none
Cc1nc(CN2CCN(C(=O)c3ccccc3C3CCNC3)CC2)no1 (stereo unspecified) | none | none | none
Cc1ccc2c(=O)c3cccc(CC(=O)O)c3oc2c1C | none | none | none
CCN(Cc1ccncc1)C(=O)c1ccc(C2CCNC2)cc1 (stereo unspecified) | none | none | none
CCOc1ccc(-c2cnc(NCc3ccc(F)cc3)n2C)cc1 | none | none | none
COc1ccc(Nc2nc(C)c3c(n2)CC(C)CC3=O)cc1 (stereo unspecified) | none | none | none
COc1ccc2c(c1)CCCN2C(=N)Nc1ccc(Cl)cc1 | none | none | none
O=C(Oc1cccnc1O)c1cccc(Cl)c1 | none | none | none
O=C(Cn1ccc(=O)[nH]c1=O)NCCO | none | none | none
CC1(C)CC(=O)C2=C(C1)OC(N)=C(C#N)C2C#Cc1ccccc1 (stereo unspecified) | none | none | none
CC(C)OC1CCCC(O)C1CC(=O)O (stereo unspecified) | none | none | none
COc1ccc(CCNC(=O)c2nonc2N)cc1OC | none | none | none
CCOC(=O)C(=O)Cc1cccnn1 | none | none | none
COc1ccc(-c2nc3nc(C)cc(NCCO)n3n2)cc1 | none | - | none
N#CC1=C(N)OC2=C(C(=O)CCC2)C1c1ccc(O)c(O)c1 (stereo unspecified) | none | none | none
CC1(C)Cc2c(c(N3CCOCC3)nc3sc(-c4ccc(C(=O)O)o4)c(N)c23)CO1 | none | none | none
Cn1ccnc1C(=O)c1ccc(N)cc1 | none | none | none
COc1cccc(Cn2c(-c3nonc3N)nc3ccccc32)c1 | none | none | none
CCc1ccc(C2C(C#N)=C(N)Oc3c2c(=O)oc2ccccc32)cc1 (stereo unspecified) | none | none | none
CCCCNc1nc(N)ncc1[N+](=O)[O-] | none | none | none
CCc1nccn1CCC(=O)N1C[C@H](c2ccc(C)o2)[C@@H](N)C1 | none | none | none
Cc1ccc(Nc2cc(N3CCN(S(=O)(=O)c4cccc(Cl)c4)CC3)nc(C)n2)cc1 | none | - | none
COC(=O)c1c(N)n(CCc2ccccc2)c2nc3ccccc3nc12 | none | none | none
OC1(CNCCc2ccccc2Cl)CCNC1 (stereo unspecified) | none | none | none
OCCN(CCOCc1ccccc1)Cc1ccccc1 | none | none | none
Cc1ccc(S(=O)(=O)NNC(=O)C23CCC(CC2)C3)cc1 | none | none | none
CCCC(O)c1nc2ccccc2n1CCCOc1ccccc1Cl (stereo unspecified) | none | - | none
Cc1ccc(-c2noc(CNc3cccc(C)c3)n2)cc1 | none | none | none
COc1ccc(-c2cc3nc(C)cc(NC(C)C)n3n2)cc1OC | none | - | none
Cn1cc(CC(=O)N2CCCCC(N)C2)c2ccccc21 (stereo unspecified) | none | none | none
Cn1c(=O)n(C)c2cc(CNCCc3ccc(S(N)(=O)=O)cc3)ccc21 | none | - | none
Cc1ccccc1OCCCCn1c(CCCO)nc2ccccc21 | none | none | none
Nc1nn(-c2ccccc2)nc1C(=O)OCc1cccc(Br)c1 | none | none | none
O=[N+]([O-])c1ccc(Sc2ncccn2)c([N+](=O)[O-])c1 | none | none | none
OC1(CNCC2CCC(c3nc4ccccc4[nH]3)CC2)CCCNC1 (stereo unspecified) | none | none | none
CS(=O)(=O)Nc1ccc(-c2ccc(N)cc2)cc1[N+](=O)[O-] | none | none | none
Cn1cc(-c2csc(N)n2)c2ccccc21 | none | none | none

For reference, 4 entries once more:

* C=C(C)CN1CC(=O)N2CC[C@@H](O)C[C@H]2C1=O | TPP: none; SAM-II: none; PreQ1: none
* CCCC(O)c1nc2ccccc2n1CCCOc1ccccc1Cl (stereo unspecified) | TPP: none; PreQ1: none
* Cc1ccc(Nc2cc(N3CCN(S(=O)(=O)c4cccc(Cl)c4)CC3)nc(C)n2)cc1 | TPP: none; PreQ1: none
* Nc1nn(-c2ccccc2)nc1C(=O)OCc1cccc(Br)c1 | TPP: none; SAM-II: none; PreQ1: none